According to the supplement of paper PMC9454738:
Counter-ions that a name gives are not always drawn. ± gives the standard deviation of the averaged measurements. The list shows a part of the results. This data set is noisy: repeats of one test often differ as much as different tests do.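 Test systems: triple-negative MDA-MB-231 breast cancer cells and their brain-metastatic MDA-MB-231BRM derivative, each stably carrying empty vector, full-length GLI1 or truncated tGLI1. Viability after 48 h was read by CellTiter-Blue and expressed against 1% DMSO vehicle. A compound was tGLI1-selective if it lowered viability 20% more in tGLI1 cells than in vector and GLI1 cells.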

test system: MDA-MB-231 tGLI1; assay: cell viability relative to vehicle (DMSO) control (fraction); higher = more viable cells (less growth inhibition); conditions: 0.05 µM; treatment time 48 h

Row | SMILES | cell viability
1 | C[C@H]1[C@H](C)CC[C@]2(C(=O)O)CC[C@]3(C)C(=CC[C@@H]4[C@@]5(C)C[C@@H](O)[C@H](O)[C@@](C)(CO)[C@@H]5CC[C@]43C)[C@H]12 [Asiatic Acid] | 1.33
2 | O=C1NC(=O)C(c2ccccc2[N+](=O)[O-])=C1Nc1ccc(O)c(Cl)c1 | 1.22
3 | Cc1c(Cn2c(C)nc3c(C(=O)O)cc(N4CCOCC4)cc32)cccc1C(F)(F)F | 0.62
4 | Cc1ccc(NC(=O)c2ccc(CN3CCN(C)CC3)cc2)cc1Nc1nccc(-c2cccnc2)n1 [Imatinib (STI571)] | 1.38
5 | CCC(=O)NCC[C@@H]1CCc2ccc3c(c21)CCO3 [Ramelteon (TAK-375)] | 1
6 | NC(=O)Nc1cc(-c2cccc(F)c2)sc1C(=O)N[C@H]1CCCNC1 | 0.787
7 | COc1cc2ncnc(Oc3ccc(CC(=O)Nc4cnn(C(C)C)c4)cc3)c2cc1OC | 1.39
8 | CC(C)(C)NS(=O)(=O)c1cncc(-c2cc(F)c3nc(N)nn3c2)c1 | 1.02
9 | O=C(Nc1cc(C(F)(F)F)cc(C(F)(F)F)c1)c1cc(Cl)ccc1O | 0.759
10 | CN1CCC(COc2cnc(-c3cccc(Cn4nc(-c5cccc(C#N)c5)ccc4=O)c3)nc2)CC1 | 1.31
11 | CC(C)CC(=O)Nc1n[nH]c2c1CN(C(=O)C1CCN(C)CC1)C2(C)C | 0.325
12 | COc1cc2ncc(-c3ccccc3)nc2cc1OC [Tyrphostin AG 1296] | 0.715
13 | C1=N/C2=N/c3ccc(OCCN4CCCC4)c(c3)COC/C=C/COCc3cccc(c3)C(=C1)N2 [Pacritinib (SB1518)] | 0.689
14 | O=C(NCCO)c1cccc(-c2cc(Nc3ccc(OC(F)(F)F)cc3)ncn2)c1 | 1.35
15 | N#CC(=C(/N)Sc1ccccc1N)/C(C#N)=C(\N)Sc1ccccc1N | 1.33
16 | CN(C)Cc1cccc(N/C(=C2\C(=O)Nc3cc(C(N)=O)ccc32)c2ccccc2)c1 | 0.533
17 | C[C@@H](CN1CC(=O)NC(=O)C1)N1CC(=O)NC(=O)C1 [Dexrazoxane Hydrochloride] | 1.08
18 | COc1ccc(-c2ccc3ncc4c(c3c2)n(-c2ccc(N3CCNCC3)c(C(F)(F)F)c2)c(=O)n4C)cn1 | 0.316
19 | CC(C)(C)c1cnc(CSc2cnc(NC(=O)C3CCNCC3)s2)o1 | 0.21
20 | Cc1c(F)cc(C(=O)NC2CC2)cc1-c1ccc(C(=O)NCC(C)(C)C)cn1 | 1.39

Row | SMILES | cell viability
21 | CCCC1O[C@@H]2C[C@H]3[C@@H]4CCC5=CC(=O)C=C[C@]5(C)[C@H]4[C@@H](O)C[C@]3(C)[C@]2(C(=O)CO)O1 (stereo partly drawn) [Budesonide] | 1.05
22 | C[C@@H](Oc1cc(-c2cnn(C3CCNCC3)c2)cnc1N)c1c(Cl)ccc(F)c1Cl | 1.19 ± 0.07
23 | O=C1NC(=O)/C(=C/c2ccc3nccc(-c4ccncc4)c3c2)S1 | 1.31
24 | Cc1ccc2nc(NCCN)c3ncc(C)n3c2c1 | 1.36
25 | CC(=O)[C@]1(O)Cc2c(O)c3c(c(O)c2[C@@H](O[C@H]2C[C@H](N)[C@H](O)[C@H](C)O2)C1)C(=O)c1ccccc1C3=O [Idarubicin HCl] | -0.266
26 | NC1(c2ccc(-c3nc4ccn5c(=O)[nH]nc5c4cc3-c3ccccc3)cc2)CCC1 | 0.883
27 | O=C1NC(=O)/C(=C/c2ccc(-c3ccc(F)cc3O)o2)S1 | 1.37
28 | CN(C)CCOc1ccc(-c2nc(-c3ccncc3)c(-c3ccc4c(c3)CC/C4=N\O)[nH]2)cc1 | 1.19
29 | O=C1NC(=O)/C(=C/c2cccc(C(F)(F)F)c2)S1 | 1.35
30 | C=CC(=O)Nc1ccc2ncnc(Nc3cccc(Br)c3)c2c1 | 1.52
31 | COc1cc(F)c(F)c(Nc2ccc(I)cc2F)c1NS(=O)(=O)C1(C[C@H](O)CO)CC1 [Refametinib (RDEA119, Bay 86-9766)] | 1.16
32 | Cc1cc(CN2CCN(c3c(Br)cnc4nc(-c5ccc(N6CCN(C)CC6)cc5)[nH]c34)CC2)no1 | 1.32
33 | Cc1cc(F)c(Nc2ncnc3cc(OCc4ccccc4)ccc23)cc1O | 0.915
34 | CN1CCC(CNc2ccc3ncc(-c4cccc(OC(F)(F)F)c4)n3n2)CC1 [SGI-1776 free base] | 1.27
35 | COc1cc(OC)c(/C=C/S(=O)(=O)Cc2ccc(OC)c(NCC(=O)O)c2)c(OC)c1 | 1.21
36 | COc1ncc(-c2ccc3nccc(-c4ccnnc4)c3c2)cc1NS(=O)(=O)c1ccc(F)cc1F | 0.638
37 | S=C(NCc1ccc2c(c1)OCO2)N1CCN(c2ncnc3c2oc2ccccc23)CC1 [Amuvatinib (MP-470)] | 0.856
38 | OCCn1cc(-c2cnc3nnn(Cc4ccc5ncccc5c4)c3n2)cn1 | 1.02
39 | Cc1c(NC(=O)c2ccc(C(C)(C)C)cc2)cccc1-c1cn(C)c(=O)c(Nc2ccc(C(=O)N3CCOCC3)cc2)n1 | 1.31

same assay, conditions: 0.5 µM; treatment time 48 h

Row | SMILES | cell viability
40 | C[C@H]1[C@H](C)CC[C@]2(C(=O)O)CC[C@]3(C)C(=CC[C@@H]4[C@@]5(C)C[C@@H](O)[C@H](O)[C@@](C)(CO)[C@@H]5CC[C@]43C)[C@H]12 [Asiatic Acid] | 1.11
41 | O=C1NC(=O)C(c2ccccc2[N+](=O)[O-])=C1Nc1ccc(O)c(Cl)c1 | 1.13
42 | Cc1c(Cn2c(C)nc3c(C(=O)O)cc(N4CCOCC4)cc32)cccc1C(F)(F)F | 0.769
43 | Cc1ccc(NC(=O)c2ccc(CN3CCN(C)CC3)cc2)cc1Nc1nccc(-c2cccnc2)n1 [Imatinib (STI571)] | 1.4
44 | CCC(=O)NCC[C@@H]1CCc2ccc3c(c21)CCO3 [Ramelteon (TAK-375)] | 1.09
45 | NC(=O)Nc1cc(-c2cccc(F)c2)sc1C(=O)N[C@H]1CCCNC1 | 0.203
46 | COc1cc2ncnc(Oc3ccc(CC(=O)Nc4cnn(C(C)C)c4)cc3)c2cc1OC | 1.43
47 | CC(C)(C)NS(=O)(=O)c1cncc(-c2cc(F)c3nc(N)nn3c2)c1 | 1.18
48 | O=C(Nc1cc(C(F)(F)F)cc(C(F)(F)F)c1)c1cc(Cl)ccc1O | 0.811
49 | CN1CCC(COc2cnc(-c3cccc(Cn4nc(-c5cccc(C#N)c5)ccc4=O)c3)nc2)CC1 | 1.52
50 | CC(C)CC(=O)Nc1n[nH]c2c1CN(C(=O)C1CCN(C)CC1)C2(C)C | 1.19
51 | COc1cc2ncc(-c3ccccc3)nc2cc1OC [Tyrphostin AG 1296] | 0.784
52 | C1=N/C2=N/c3ccc(OCCN4CCCC4)c(c3)COC/C=C/COCc3cccc(c3)C(=C1)N2 [Pacritinib (SB1518)] | 0.241
53 | O=C(NCCO)c1cccc(-c2cc(Nc3ccc(OC(F)(F)F)cc3)ncn2)c1 | 1.49
54 | N#CC(=C(/N)Sc1ccccc1N)/C(C#N)=C(\N)Sc1ccccc1N | 1.36
55 | CN(C)Cc1cccc(N/C(=C2\C(=O)Nc3cc(C(N)=O)ccc32)c2ccccc2)c1 | 1.27
56 | C[C@@H](CN1CC(=O)NC(=O)C1)N1CC(=O)NC(=O)C1 [Dexrazoxane Hydrochloride] | 0.995
57 | COc1ccc(-c2ccc3ncc4c(c3c2)n(-c2ccc(N3CCNCC3)c(C(F)(F)F)c2)c(=O)n4C)cn1 | 0.187
58 | CC(C)(C)c1cnc(CSc2cnc(NC(=O)C3CCNCC3)s2)o1 | 0.141
59 | Cc1c(F)cc(C(=O)NC2CC2)cc1-c1ccc(C(=O)NCC(C)(C)C)cn1 | 1.59

Row | SMILES | cell viability
60 | CCCC1O[C@@H]2C[C@H]3[C@@H]4CCC5=CC(=O)C=C[C@]5(C)[C@H]4[C@@H](O)C[C@]3(C)[C@]2(C(=O)CO)O1 (stereo partly drawn) [Budesonide] | 0.936
61 | C[C@@H](Oc1cc(-c2cnn(C3CCNCC3)c2)cnc1N)c1c(Cl)ccc(F)c1Cl | 1.08 ± 0.4
62 | O=C1NC(=O)/C(=C/c2ccc3nccc(-c4ccncc4)c3c2)S1 | 0.968
63 | Cc1ccc2nc(NCCN)c3ncc(C)n3c2c1 | 1.44
64 | CC(=O)[C@]1(O)Cc2c(O)c3c(c(O)c2[C@@H](O[C@H]2C[C@H](N)[C@H](O)[C@H](C)O2)C1)C(=O)c1ccccc1C3=O [Idarubicin HCl] | -0.299
65 | NC1(c2ccc(-c3nc4ccn5c(=O)[nH]nc5c4cc3-c3ccccc3)cc2)CCC1 | 1.06
66 | O=C1NC(=O)/C(=C/c2ccc(-c3ccc(F)cc3O)o2)S1 | 1.3
67 | CN(C)CCOc1ccc(-c2nc(-c3ccncc3)c(-c3ccc4c(c3)CC/C4=N\O)[nH]2)cc1 | 1.17
68 | O=C1NC(=O)/C(=C/c2cccc(C(F)(F)F)c2)S1 | 1.39
69 | C=CC(=O)Nc1ccc2ncnc(Nc3cccc(Br)c3)c2c1 | 1.37
70 | COc1cc(F)c(F)c(Nc2ccc(I)cc2F)c1NS(=O)(=O)C1(C[C@H](O)CO)CC1 [Refametinib (RDEA119, Bay 86-9766)] | 1.13
71 | Cc1cc(CN2CCN(c3c(Br)cnc4nc(-c5ccc(N6CCN(C)CC6)cc5)[nH]c34)CC2)no1 | 0.887
72 | Cc1cc(F)c(Nc2ncnc3cc(OCc4ccccc4)ccc23)cc1O | 1.13
73 | CN1CCC(CNc2ccc3ncc(-c4cccc(OC(F)(F)F)c4)n3n2)CC1 [SGI-1776 free base] | 0.75
74 | COc1cc(OC)c(/C=C/S(=O)(=O)Cc2ccc(OC)c(NCC(=O)O)c2)c(OC)c1 | 0.913
75 | COc1ncc(-c2ccc3nccc(-c4ccnnc4)c3c2)cc1NS(=O)(=O)c1ccc(F)cc1F | 0.375
76 | S=C(NCc1ccc2c(c1)OCO2)N1CCN(c2ncnc3c2oc2ccccc23)CC1 [Amuvatinib (MP-470)] | 1.04
77 | OCCn1cc(-c2cnc3nnn(Cc4ccc5ncccc5c4)c3n2)cn1 | 1.45
78 | Cc1c(NC(=O)c2ccc(C(C)(C)C)cc2)cccc1-c1cn(C)c(=O)c(Nc2ccc(C(=O)N3CCOCC3)cc2)n1 | 1.42
